The values that follow come from paper PMC7297794.

Amino acid sequences for entries named in this document (tags omitted). Residues count along the entry.
UniProt P35869, residues 11-848: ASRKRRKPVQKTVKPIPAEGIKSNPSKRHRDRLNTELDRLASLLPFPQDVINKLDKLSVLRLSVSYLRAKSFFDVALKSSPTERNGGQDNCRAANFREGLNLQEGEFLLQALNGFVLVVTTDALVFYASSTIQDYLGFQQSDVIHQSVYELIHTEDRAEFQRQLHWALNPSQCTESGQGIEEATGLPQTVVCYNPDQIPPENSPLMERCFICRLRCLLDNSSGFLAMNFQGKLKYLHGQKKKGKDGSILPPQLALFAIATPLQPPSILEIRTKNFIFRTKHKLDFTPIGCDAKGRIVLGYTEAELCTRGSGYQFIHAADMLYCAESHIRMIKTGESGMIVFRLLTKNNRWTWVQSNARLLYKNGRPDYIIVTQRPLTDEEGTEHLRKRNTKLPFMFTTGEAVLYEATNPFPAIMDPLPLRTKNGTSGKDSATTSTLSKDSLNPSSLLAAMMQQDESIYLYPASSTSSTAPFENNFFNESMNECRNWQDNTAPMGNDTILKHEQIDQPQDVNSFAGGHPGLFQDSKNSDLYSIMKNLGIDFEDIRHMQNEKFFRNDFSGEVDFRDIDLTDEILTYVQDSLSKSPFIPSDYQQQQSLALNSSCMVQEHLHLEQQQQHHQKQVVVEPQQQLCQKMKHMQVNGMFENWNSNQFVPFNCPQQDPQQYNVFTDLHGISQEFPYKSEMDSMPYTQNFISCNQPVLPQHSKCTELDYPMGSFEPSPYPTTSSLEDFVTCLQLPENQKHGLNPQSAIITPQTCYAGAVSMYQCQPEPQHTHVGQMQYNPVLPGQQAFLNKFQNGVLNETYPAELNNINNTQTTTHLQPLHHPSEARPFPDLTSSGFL

Results are given in words; binding and its absence hold for the method and conditions named. Binding seen in cells or lysates may run through a third protein. Some binding calls cover weakened binding; strength is not graded here.

This assay concerns the target Aryl hydrocarbon receptor (AhR) (UniProt P35869). As to the kind of experiment: co-IP; AhR and UCHL3 coexpressed in HEK293T cells; 1 mg of total protein in IP buffer, 2 ug anti-AhR antibody (sc-133088) at 4 °C overnight, Dynabeads protein G; IgG as negative control; UCHL3 detected by western blot.

B1: ubiquitin carboxyl terminal hydrolase L3 (UCHL3) (enzyme, UniProt P15374 1-230)
chain: MEGQRWLPLEANPEVTNQFLKQLGLHPNWQFVDVYGMDPELLSMVPRPVCAVLLLFPITEKYEVFRTEEEEKIKSQGQDVTSSVYFMKQTISNACGTIGLIHAIANNKDKMHFESGSTLKKFLEESVSMSPEERARYLENYDAIRVTHETSAHEGQTEAPSIDEKVDLHFIALVHVDGHLYELDGRKPFPINHGETSDETLLEDAIEVCKKFMERDPDELRFNAIALSAA
For B1, the binding entry was “binds”.
